The target in the test is GFP-tagged NSP14 (SARS-CoV-2, WT) (SARS-CoV-2 (Wuhan-Hu-1)) (UniProt P0DTD1). Kind of test: co-IP.

By UniProt entry, the sequences of proteins in these tests, tags left out. Residues count along the entry.
UniProt Q04206, residues 2-551: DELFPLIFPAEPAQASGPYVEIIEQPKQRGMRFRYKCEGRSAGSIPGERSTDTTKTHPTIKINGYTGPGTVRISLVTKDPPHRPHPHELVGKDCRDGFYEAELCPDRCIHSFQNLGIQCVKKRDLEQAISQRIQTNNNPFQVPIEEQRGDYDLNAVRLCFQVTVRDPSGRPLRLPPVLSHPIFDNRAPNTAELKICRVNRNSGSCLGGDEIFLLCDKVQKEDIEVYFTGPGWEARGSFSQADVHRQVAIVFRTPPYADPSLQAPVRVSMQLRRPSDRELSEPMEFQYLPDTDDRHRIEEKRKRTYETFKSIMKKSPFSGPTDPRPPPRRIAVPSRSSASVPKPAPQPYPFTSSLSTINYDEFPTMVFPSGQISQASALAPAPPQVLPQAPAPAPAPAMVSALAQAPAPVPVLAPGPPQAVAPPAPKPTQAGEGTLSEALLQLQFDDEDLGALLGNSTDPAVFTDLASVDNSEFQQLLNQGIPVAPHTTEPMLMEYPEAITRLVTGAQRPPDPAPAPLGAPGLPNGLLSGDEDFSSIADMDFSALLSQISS

Results are given in words; binding and its absence hold for the method and conditions named. In cells and extracts the contact can be indirect. Where a sequence is shown, tags or fusion partners need not be part of it.

Regarding “3xFLAG-tagged p65 (from UniProt Q04206 2-551)”, the binding entry was “no binding”.

B1: 3xFLAG-tagged c-Rel (protein, UniProt Q04864 2-619)
chain: ASGAYNPYIEIIEQPRQRGMRFRYKCEGRSAGSIPGEHSTDNNRTYPSIQIMNYYGKGKVRITLVTKNDPYKPHPHDLVGKDCRDGYYEAEFGQERRPLFFQNLGIRCVKKKEVKEAIITRIKAGINPFNVPEKQLNDIEDCDLNVVRLCFQVFLPDEHGNLTTALPPVVSNPIYDNRAPNTAELRICRVNKNCGSVRGGDEIFLLCDKVQKDDIEVRFVLNDWEAKGIFSQADVHRQVAIVFKTPPYCKAITEPVTVKMQLRRPSDQEVSESMDFRYLPDEKDTYGNKAKKQKTTLLFQKLCQDHVETGFRHVDQDGLELLTSGDPPTLASQSAGITVNFPERPRPGLLGSIGEGRYFKKEPNLFSHDAVVREMPTGVSSQAESYYPSPGPISSGLSHHASMAPLPSSSWSSVAHPTPRSGNTNPLSSFSTRTLPSNSQGIPPFLRIPVGNDLNASNACIYNNADDIVGMEASSMPSADLYGISDPNMLSNCSVNMMTTSSDSMGETDNPRLLSMNLENPSCNSVLDPRDLRQLHQMSSSSMSAGANSNTTVFVSQSDAFEGSDFSCADNSMINESGPSNSTNPNSHGFVQDSQYSGIGSMQNEQLSDSFPYEFFQV
With B1, the binding result was “no binding”.

For the origin of these results see paper PMC10776897.
